Source: patent US10864212B2, “Compositions and methods for treating retinal degradation” (University of Kentucky Research Foundation, priority 2013, dated 2020)
“Also recorded” adds a separate entry of the source. For at least one compound, name, drawing or mass did not settle the structure.

System: Caspase-1
Assay: Western blot of Caspase-1 activation in primary human RPE cells transfected with Alu RNA
Type: cell-based
Procedure: The bottom row is a vinculin loading control. […]
FIG. 7 is a Western blot showing that Alu RNA causes Caspase-1 maturation in primary human RPE cells at 24 hours after Alu administration (top, middle lane, lower band), which is blocked with co-treatment with azidothymidine (AZT), cordycepin, and abacavir (ABC) (50-100 uM; lanes 3-8 from left). The loading control vinculin is shown on the bottom.
FIG. 21 is a Western blot of Caspase-1 activation (p20 subunit) in primary human RPE cells transfected with Alu RNA±me-d4T.
FIG. 35 is a Western blot of Caspase-1 activation in human RPE cells transfected with Alu RNA±NRTIs (3TC, AZT, ABC).
The bottom row in FIG. 5 is a vinculin loading control. […]
Next, FIG. 7 provides evidence of AZT, cordycepin, and abacavir inhibition of inflammasome activation by Alu RNA. Indeed, Alu RNA causes NLRP3 inflammasome activation, which is marked by processing of the enzyme Caspase 1. FIG. 7 is a Western blot showing that Alu RNA causes Caspase-1 maturation in primary human RPE cells at 24 hours after Alu administration (top, lane 2, lower band), which is blocked with co-treatment with azidothymidine (AZT), cordycepin, and abacavir (ABC) (50-100 uM; Lanes 3-8). Again, the loading control vinculin is shown on the bottom.

Nc1nc(NC2CC2)c2ncn([C@H]3C=C[C@@H](CO)C3)c2n1 [ABC, cyclopropylaminopurinylcyclopentene]
Caspase-1 maturation caused by Alu RNA (24 hours after Alu administration, 50-100 uM, FIG. 7): blocked
Caspase-1 activation / cleavage (p20) induced by Alu RNA (concentration not given, FIG. 21, 34, 35, 51-53): block Caspase 1 activation by Alu RNA; also recorded: block Caspase-1 cleavage induced by Alu RNA
